Experiment [1] has as its target T1, GFP-Zαβ^DAI fusion (amino-terminal region of human DAI, residues Ala2-Tyr165, with N-terminal LAP-tag) (human) (UniProt Q9H171).
T1 sequence: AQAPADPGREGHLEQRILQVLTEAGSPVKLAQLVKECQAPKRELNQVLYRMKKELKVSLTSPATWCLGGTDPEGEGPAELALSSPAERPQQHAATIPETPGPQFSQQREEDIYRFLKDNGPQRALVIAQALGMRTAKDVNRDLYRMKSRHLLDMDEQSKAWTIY
As to the kind of experiment: affinity purification with mass spectrometry.

By UniProt entry, the sequences of proteins in these tests, tags left out.
UniProt P17844: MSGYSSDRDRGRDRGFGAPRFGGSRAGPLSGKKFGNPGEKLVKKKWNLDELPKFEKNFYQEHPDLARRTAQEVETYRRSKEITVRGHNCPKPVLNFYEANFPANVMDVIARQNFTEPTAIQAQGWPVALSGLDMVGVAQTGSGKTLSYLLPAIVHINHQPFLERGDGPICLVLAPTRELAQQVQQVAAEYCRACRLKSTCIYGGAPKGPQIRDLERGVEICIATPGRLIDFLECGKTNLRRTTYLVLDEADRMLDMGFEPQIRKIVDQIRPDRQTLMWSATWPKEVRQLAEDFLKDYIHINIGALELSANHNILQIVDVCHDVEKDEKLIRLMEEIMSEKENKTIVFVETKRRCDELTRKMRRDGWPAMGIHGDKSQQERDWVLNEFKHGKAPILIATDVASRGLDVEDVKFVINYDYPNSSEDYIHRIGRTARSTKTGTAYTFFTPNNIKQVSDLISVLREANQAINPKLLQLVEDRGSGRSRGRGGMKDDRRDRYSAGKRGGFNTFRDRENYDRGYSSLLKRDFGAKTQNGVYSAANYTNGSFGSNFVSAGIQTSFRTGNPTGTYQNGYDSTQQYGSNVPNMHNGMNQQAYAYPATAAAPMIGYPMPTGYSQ
UniProt O94992: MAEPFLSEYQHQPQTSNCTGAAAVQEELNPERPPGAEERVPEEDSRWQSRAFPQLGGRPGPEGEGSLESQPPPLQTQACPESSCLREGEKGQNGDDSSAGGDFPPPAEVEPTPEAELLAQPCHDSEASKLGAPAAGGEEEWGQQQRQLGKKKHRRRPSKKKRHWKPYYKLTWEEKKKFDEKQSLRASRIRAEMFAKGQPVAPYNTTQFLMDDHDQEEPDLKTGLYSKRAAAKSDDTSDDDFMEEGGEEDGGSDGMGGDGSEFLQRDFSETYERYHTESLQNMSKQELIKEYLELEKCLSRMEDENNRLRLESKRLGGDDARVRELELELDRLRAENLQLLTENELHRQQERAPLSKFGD
UniProt P35611: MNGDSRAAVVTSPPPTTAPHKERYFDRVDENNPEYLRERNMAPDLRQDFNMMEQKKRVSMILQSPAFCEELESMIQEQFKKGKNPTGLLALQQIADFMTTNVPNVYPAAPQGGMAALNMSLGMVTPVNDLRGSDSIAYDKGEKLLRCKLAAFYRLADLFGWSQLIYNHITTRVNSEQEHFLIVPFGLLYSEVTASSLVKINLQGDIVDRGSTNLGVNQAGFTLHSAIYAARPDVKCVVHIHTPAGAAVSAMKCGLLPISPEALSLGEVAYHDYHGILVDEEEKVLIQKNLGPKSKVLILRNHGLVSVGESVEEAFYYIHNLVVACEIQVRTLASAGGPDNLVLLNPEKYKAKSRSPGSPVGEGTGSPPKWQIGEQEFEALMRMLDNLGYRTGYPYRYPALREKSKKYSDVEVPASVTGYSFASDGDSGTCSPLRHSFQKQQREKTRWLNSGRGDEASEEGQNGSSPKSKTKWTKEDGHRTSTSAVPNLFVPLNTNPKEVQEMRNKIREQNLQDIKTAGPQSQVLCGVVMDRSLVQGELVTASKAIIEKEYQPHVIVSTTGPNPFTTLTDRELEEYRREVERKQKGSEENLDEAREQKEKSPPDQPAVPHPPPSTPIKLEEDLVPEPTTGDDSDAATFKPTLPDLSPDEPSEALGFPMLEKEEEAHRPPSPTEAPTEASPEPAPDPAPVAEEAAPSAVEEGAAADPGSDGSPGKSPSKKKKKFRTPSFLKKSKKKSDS
UniProt Q27J81: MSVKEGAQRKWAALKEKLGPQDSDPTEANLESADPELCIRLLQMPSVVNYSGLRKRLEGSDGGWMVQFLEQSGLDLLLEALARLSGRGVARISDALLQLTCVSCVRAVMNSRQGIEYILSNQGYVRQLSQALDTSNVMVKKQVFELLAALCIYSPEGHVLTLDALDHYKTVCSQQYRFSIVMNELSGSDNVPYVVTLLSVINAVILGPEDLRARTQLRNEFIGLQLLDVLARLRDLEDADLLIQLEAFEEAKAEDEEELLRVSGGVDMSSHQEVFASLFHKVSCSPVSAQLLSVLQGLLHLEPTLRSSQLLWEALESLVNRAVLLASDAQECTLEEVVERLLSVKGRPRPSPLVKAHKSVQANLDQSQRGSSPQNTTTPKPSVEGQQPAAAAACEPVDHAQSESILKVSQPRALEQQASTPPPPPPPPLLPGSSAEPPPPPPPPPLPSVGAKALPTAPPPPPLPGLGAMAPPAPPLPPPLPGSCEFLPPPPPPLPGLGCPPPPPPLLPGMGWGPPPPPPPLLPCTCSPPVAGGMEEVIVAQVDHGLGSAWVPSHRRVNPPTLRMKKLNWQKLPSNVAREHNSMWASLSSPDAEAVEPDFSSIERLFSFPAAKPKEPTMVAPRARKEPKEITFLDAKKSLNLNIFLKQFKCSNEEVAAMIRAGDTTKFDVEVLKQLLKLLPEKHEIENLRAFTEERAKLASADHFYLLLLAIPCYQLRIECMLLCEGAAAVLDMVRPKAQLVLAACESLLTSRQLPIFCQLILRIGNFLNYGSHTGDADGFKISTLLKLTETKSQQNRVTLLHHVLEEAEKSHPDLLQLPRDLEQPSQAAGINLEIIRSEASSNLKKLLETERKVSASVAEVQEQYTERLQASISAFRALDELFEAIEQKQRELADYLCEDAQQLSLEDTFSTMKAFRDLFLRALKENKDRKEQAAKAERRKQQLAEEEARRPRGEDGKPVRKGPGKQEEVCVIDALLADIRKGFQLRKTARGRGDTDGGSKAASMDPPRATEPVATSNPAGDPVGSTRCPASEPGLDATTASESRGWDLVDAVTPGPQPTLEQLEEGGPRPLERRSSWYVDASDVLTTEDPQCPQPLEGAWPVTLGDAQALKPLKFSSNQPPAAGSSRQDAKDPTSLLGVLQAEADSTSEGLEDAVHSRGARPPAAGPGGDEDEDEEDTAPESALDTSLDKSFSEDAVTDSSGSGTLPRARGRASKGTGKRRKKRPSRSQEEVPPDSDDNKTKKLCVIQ
UniProt Q92841: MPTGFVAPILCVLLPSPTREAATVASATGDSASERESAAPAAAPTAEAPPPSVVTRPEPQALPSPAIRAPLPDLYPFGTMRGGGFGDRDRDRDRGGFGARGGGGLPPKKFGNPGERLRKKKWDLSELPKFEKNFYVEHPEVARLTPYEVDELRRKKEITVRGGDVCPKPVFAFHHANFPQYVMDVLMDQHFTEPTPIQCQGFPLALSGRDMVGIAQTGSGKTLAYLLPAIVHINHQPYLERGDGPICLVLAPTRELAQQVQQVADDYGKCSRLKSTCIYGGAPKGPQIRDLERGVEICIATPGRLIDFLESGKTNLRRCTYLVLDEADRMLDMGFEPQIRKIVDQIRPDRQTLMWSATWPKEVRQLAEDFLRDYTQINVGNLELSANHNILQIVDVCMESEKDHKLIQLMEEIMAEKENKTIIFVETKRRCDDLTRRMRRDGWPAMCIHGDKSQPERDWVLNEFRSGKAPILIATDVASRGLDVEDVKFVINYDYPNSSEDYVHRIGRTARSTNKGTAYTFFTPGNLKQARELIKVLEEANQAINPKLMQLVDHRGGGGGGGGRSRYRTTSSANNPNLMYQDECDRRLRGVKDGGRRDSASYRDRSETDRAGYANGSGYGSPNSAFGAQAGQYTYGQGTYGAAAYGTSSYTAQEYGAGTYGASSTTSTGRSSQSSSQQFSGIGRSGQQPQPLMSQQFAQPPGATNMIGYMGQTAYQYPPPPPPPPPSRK
UniProt P35637: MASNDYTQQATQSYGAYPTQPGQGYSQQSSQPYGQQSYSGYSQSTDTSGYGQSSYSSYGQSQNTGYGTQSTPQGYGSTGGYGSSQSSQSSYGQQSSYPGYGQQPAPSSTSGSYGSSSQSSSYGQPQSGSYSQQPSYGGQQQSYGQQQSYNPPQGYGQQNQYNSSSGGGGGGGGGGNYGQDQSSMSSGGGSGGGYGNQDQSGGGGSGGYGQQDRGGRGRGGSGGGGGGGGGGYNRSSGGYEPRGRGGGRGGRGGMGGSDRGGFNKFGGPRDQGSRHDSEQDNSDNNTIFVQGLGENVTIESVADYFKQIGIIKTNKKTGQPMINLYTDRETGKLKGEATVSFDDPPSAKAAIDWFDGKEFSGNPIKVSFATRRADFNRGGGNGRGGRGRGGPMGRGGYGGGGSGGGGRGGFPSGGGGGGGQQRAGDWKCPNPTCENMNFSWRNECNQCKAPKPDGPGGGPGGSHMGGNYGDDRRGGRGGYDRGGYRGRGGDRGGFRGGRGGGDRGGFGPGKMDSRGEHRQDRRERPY
UniProt P41091: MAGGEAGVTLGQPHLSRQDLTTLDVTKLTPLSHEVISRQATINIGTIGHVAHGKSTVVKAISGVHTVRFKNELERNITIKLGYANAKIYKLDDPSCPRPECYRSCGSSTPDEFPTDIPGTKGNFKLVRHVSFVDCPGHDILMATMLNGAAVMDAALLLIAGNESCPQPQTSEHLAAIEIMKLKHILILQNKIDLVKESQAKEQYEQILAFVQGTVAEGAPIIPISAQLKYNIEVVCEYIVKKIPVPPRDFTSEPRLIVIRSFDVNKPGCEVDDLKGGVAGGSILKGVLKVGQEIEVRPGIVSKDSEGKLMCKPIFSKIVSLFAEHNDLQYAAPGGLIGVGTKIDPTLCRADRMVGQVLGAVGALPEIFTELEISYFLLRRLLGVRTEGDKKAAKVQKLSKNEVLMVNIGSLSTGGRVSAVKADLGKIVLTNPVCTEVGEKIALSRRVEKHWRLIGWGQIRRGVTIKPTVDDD

The target of experiment [2] is T2, GFP-Zαβ^DAI quadruple mutant (N46A/Y50A/N141A/Y145A) (human) (UniProt Q9H171).
T2 sequence: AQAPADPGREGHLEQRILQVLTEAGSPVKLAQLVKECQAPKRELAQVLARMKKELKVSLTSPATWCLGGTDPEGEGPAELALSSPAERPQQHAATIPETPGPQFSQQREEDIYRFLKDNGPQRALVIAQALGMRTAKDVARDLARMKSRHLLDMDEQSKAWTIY
As to the kind of experiment: affinity purification with mass spectrometry.

No constants are given. Whether binding was seen depends on the method and setting. Binding seen in cells or lysates may run through a third protein. Here binding means that the protein was enriched with, or labelled near, the bait; the list need not be complete. Sequences can lack the tags named with a protein.

For “DEAD-Box Helicase 5 (from UniProt P17844 1-614)”, the binding result in experiment [1] and in experiment [2] was “binds” each time.

Consider “Protein HEXIM1 (from UniProt O94992 1-359)”, for which the binding entry in experiment [1] and in experiment [2] was “binds” each time.

As to “Alpha-adducin (from UniProt P35611 1-737)”, the binding entry in experiment [1] and in experiment [2] was “binds” throughout.

In the case of “Inverted formin-2 (from UniProt Q27J81 1-1249)”, the binding result in experiment [2] is “binds”.

Regarding DDX17 (from UniProt Q92841 1-729), the binding entry in experiment [1] and in experiment [2] was “binds” in each case.

Consider FUS (from UniProt P35637 1-526), for which the binding entry in experiment [1] is listed as “binds”.

With “Ras GTPase-activating protein binding protein 1 (from UniProt Q13283 1-466)”, the binding entry in experiment [1] is recorded as “binds”.

With “FAM98A protein (from UniProt Q8NCA5 1-518)”, the binding entry in experiment [1] is recorded as “binds”.

As for “Eukaryotic translation initiation factor 2 subunit 3 (from UniProt P41091 1-472)”, the binding entry in experiment [2] is recorded as “binds”.

Consider “60S acidic ribosomal protein P1 (from UniProt P05386 1-114)”, for which the binding entry in experiment [2] is reported as “binds”.

B1: Nuclear fragile X mental retardation-interacting protein 2 (protein, UniProt Q7Z417 1-695)
chain: MEEKPGQPQPQHHHSHHHPHHHPQQQQQQPHHHHHYYFYNHSHNHHHHHHHQQPHQYLQHGAEGSPKAQPKPLKHEQKHTLQQHQETPKKKTGYGELNGNAGEREISLKNLSSDEATNPISRVLNGNQQVVDTSLKQTVKANTFGKAGIKTKNFIQKNSMDKKNGKSYENKSGENQSVDKSDTIPIPNGVVTNNSGYITNGYMGKGADNDGSGSESGYTTPKKRKARRNSAKGCENLNIVQDKIMQQETSVPTLKQGLETFKPDYSEQKGNRVDGSKPIWKYETGPGGTSRGKPAVGDMLRKSSDSKPGVSSKKFDDRPKGKHASAVASKEDSWTLFKPPPVFPVDNSSAKIVPKISYASKVKENLNKTIQNSSVSPTSSSSSSSSTGETQTQSSSRLSQVPMSALKSVTSANFSNGPVLAGTDGNVYPPGGQPLLTTAANTLTPISSGTDSVLQDMSLTSAAVEQIKTSLFIYPSNMQTMLLSTAQVDLPSQTDQQNLGDIFQNQWGLSFINEPSAGPETVTGKSSEHKVMEVTFQGEYPATLVSQGAEIIPSGTEHPVFPKAYELEKRTSPQVLGSILKSGTTSESGALSLEPSHIGDLQKADTSSQGALVFLSKDYEIESQNPLASPTNTLLGSAKEQRYQRGLERNDSWGSFDLRAAIVYHTKEMESIWNLQKQDPKRIITYNEAMDSPDQ
Consider B1, for which the binding entry in experiment [1] and in experiment [2] was “binds” in each case.

B2: C14orf166 (protein, UniProt Q9Y224 1-244)
chain: MFRRKLTALDYHNPAGFNCKDETEFRNFIVWLEDQKIRHYKIEDRGNLRNIHSSDWPKFFEKYLRDVNCPFKIQDRQEAIDWLLGLAVRLEYGDNAEKYKDLVPDNSKTADNATKNAEPLINLDVNNPDFKAGVMALANLLQIQRHDDYLVMLKAIRILVQERLTQDAVAKANQTKEGLPVALDKHILGFDTGDAVLNEAAQILRLLHIEELRELQTKINEAIVAVQAIIADPKTDHRLGKVGR
Take B2: the binding entry in experiment [1] was “binds”.

B3: tRNA-splicing ligase RtcB homolog (protein, UniProt Q9Y3I0 1-505)
chain: MSRSYNDELQFLEKINKNCWRIKKGFVPNMQVEGVFYVNDALEKLMFEELRNACRGGGVGGFLPAMKQIGNVAALPGIVHRSIGLPDVHSGYGFAIGNMAAFDMNDPEAVVSPGGVGFDINCGVRLLRTNLDESDVQPVKEQLAQAMFDHIPVGVGSKGVIPMNAKDLEEALEMGVDWSLREGYAWAEDKEHCEEYGRMLQADPNKVSARAKKRGLPQLGTLGAGNHYAEIQVVDEIFNEYAAKKMGIDHKGQVCVMIHSGSRGLGHQVATDALVAMEKAMKRDKIIVNDRQLACARIASPEGQDYLKGMAAAGNYAWVNRSSMTFLTRQAFAKVFNTTPDDLDLHVIYDVSHNIAKVEQHVVDGKERTLLVHRKGSTRAFPPHHPLIAVDYQLTGQPVLIGGTMGTCSYVLTGTEQGMTETFGTTCHGAGRALSRAKSRRNLDFQDVLDKLADMGIAIRVASPKLVMEEAPESYKNVTDVVNTCHDAGISKKAIKLRPIAVIKG
As for B3, the binding result in experiment [1] and in experiment [2] was “binds” each time.

B4: Ras GTPase-activating protein-binding protein 2 (protein, UniProt Q9UN86 1-482)
chain: MVMEKPSPLLVGREFVRQYYTLLNKAPEYLHRFYGRNSSYVHGGVDASGKPQEAVYGQNDIHHKVLSLNFSECHTKIRHVDAHATLSDGVVVQVMGLLSNSGQPERKFMQTFVLAPEGSVPNKFYVHNDMFRYEDEVFGDSEPELDEESEDEVEEEQEERQPSPEPVQENANSGYYEAHPVTNGIEEPLEESSHEPEPEPESETKTEELKPQVEEKNLEELEEKSTTPPPAEPVSLPQEPPKAFSWASVTSKNLPPSGTVSSSGIPPHVKAPVSQPRVEAKPEVQSQPPRVREQRPRERPGFPPRGPRPGRGDMEQNDSDNRRIIRYPDSHQLFVGNLPHDIDENELKEFFMSFGNVVELRINTKGVGGKLPNFGFVVFDDSEPVQRILIAKPIMFRGEVRLNVEEKKTRAARERETRGGGDDRRDIRRNDRGPGGPRGIVGGGMMRDRDGRGPPPRGGMAQKLGSGRGTGQMEGRFTGQRR
Regarding B4, the binding result in experiment [1] and in experiment [2] was “binds” each time.

B5: COX assembly mitochondrial protein homolog (protein, UniProt Q7Z7K0 1-106)
chain: MALDPADQHLRHVEKDVLIPKIMREKAKERCSEQVQDFTKCCKNSGVLMVVKCRKENSALKECLTAYYNDPAFYEECKMEYLKEREEFRKTGIPTKKRLQKLPTSM
With B5, the binding result in experiment [2] is reported as “binds”.

B6: DEAD-Box Helicase 1 (protein, UniProt Q92499 1-740)
chain: MAAFSEMGVMPEIAQAVEEMDWLLPTDIQAESIPLILGGGDVLMAAETGSGKTGAFSIPVIQIVYETLKDQQEGKKGKTTIKTGASVLNKWQMNPYDRGSAFAIGSDGLCCQSREVKEWHGCRATKGLMKGKHYYEVSCHDQGLCRVGWSTMQASLDLGTDKFGFGFGGTGKKSHNKQFDNYGEEFTMHDTIGCYLDIDKGHVKFSKNGKDLGLAFEIPPHMKNQALFPACVLKNAELKFNFGEEEFKFPPKDGFVALSKAPDGYIVKSQHSGNAQVTQTKFLPNAPKALIVEPSRELAEQTLNNIKQFKKYIDNPKLRELLIIGGVAARDQLSVLENGVDIVVGTPGRLDDLVSTGKLNLSQVRFLVLDEADGLLSQGYSDFINRMHNQIPQVTSDGKRLQVIVCSATLHSFDVKKLSEKIMHFPTWVDLKGEDSVPDTVHHVVVPVNPKTDRLWERLGKSHIRTDDVHAKDNTRPGANSPEMWSEAIKILKGEYAVRAIKEHKMDQAIIFCRTKIDCDNLEQYFIQQGGGPDKKGHQFSCVCLHGDRKPHERKQNLERFKKGDVRFLICTDVAARGIDIHGVPYVINVTLPDEKQNYVHRIGRVGRAERMGLAISLVATEKEKVWYHVCSSRGKGCYNTRLKEDGGCTIWYNEMQLLSEIEEHLNCTISQVEPDIKVPVDEFDGKVTYGQKRAAGGGSYKGHVDILAPTVQELAALEKEAQTSFLHLGYLPNQLFRTF
Turning to B6, the binding result in experiment [1] and in experiment [2] was “binds” in each case.

B7: RNA-binding protein 14 (protein, UniProt Q96PK6 1-669)
chain: MKIFVGNVDGADTTPEELAALFAPYGTVMSCAVMKQFAFVHMRENAGALRAIEALHGHELRPGRALVVEMSRPRPLNTWKIFVGNVSAACTSQELRSLFERRGRVIECDVVKDYAFVHMEKEADAKAAIAQLNGKEVKGKRINVELSTKGQKKGPGLAVQSGDKTKKPGAGDTAFPGTGGFSATFDYQQAFGNSTGGFDGQARQPTPPFFGRDRSPLRRSPPRASYVAPLTAQPATYRAQPSVSLGAAYRAQPSASLGVGYRTQPMTAQAASYRAQPSVSLGAPYRGQLASPSSQSAAASSLGPYGGAQPSASALSSYGGQAAAASSLNSYGAQGSSLASYGNQPSSYGAQAASSYGVRAAASSYNTQGAASSLGSYGAQAASYGAQSAASSLAYGAQAASYNAQPSASYNAQSAPYAAQQAASYSSQPAAYVAQPATAAAYASQPAAYAAQATTPMAGSYGAQPVVQTQLNSYGAQASMGLSGSYGAQSAAAATGSYGAAAAYGAQPSATLAAPYRTQSSASLAASYAAQQHPQAAASYRGQPGNAYDGAGQPSAAYLSMSQGAVANANSTPPPYERTRLSPPRASYDDPYKKAVAMSKRYGSDRRLAELSDYRRLSESQLSFRRSPTKSSLDYRRLPDAHSDYARYSGSYNDYLRAAQMHSGYQRRM
B7: the binding result in experiment [1] and in experiment [2] was “binds” in each case.

(Values after doi:10.1101/2021.01.20.427402.)
